Results from the supplement of paper PMC12024529.
Where a name gives a salt, the structure may show the parent alone. The list shows a part of the results. Part of the spread comes from offsets between plates or batches.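 Wild-type or misfolding-prone missense mutant B-domain-deleted factor VIII, fused to Gaussia luciferase, is stably expressed in HEK293 lines. Each score is (mean triplicate-well luminescence minus DMSO mean) divided by DMSO standard deviation. Hits score at least 2; lower scores could stem from decreased secretion or poorer cell viability.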

How the values were obtained:
HEK293 WT BDD-FVIII-Gluc = test: secreted FVIII-Gluc luciferase Z-score vs DMSO control; higher = more FVIII-Gluc secretion; conditions: 5 µM; 24 h
[1] = tested on: HEK293 p.N1941S BDD-FVIII-Gluc; test: as above; conditions: 5 µM; 24 h

| SMILES | secreted FVIII-Gluc luciferase Z-score (HEK293 WT BDD-FVIII-Gluc) | secreted FVIII-Gluc luciferase Z-score [1] |
| --- | --- | --- |
| Cc1cccc([C@H](C)c2c[nH]cn2)c1C [Dexmedetomidine HCl (Precedex)] | inactive: 1.33 | inactive: -0.941 |
| CCC1=C[C@H]2CN3CCc4c([nH]c5ccccc45)[C@](C(=O)OC)(C2)[C@H]13 [Catharanthine] | inactive: -0.934 | inactive: -0.119 |
| c1ccc2c(c1)sc1ccccc12 [Dibenzothiophene] | inactive: -2.85 | inactive: -0.162 |
| Cc1cccc(C(C)c2c[nH]cn2)c1C (centres undefined) [Medetomidine HCl] | inactive: 0.716 | inactive: -0.969 |
| CC(O)(CS(=O)(=O)c1ccc(F)cc1)C(=O)Nc1ccc(C#N)c(C(F)(F)F)c1 (centres undefined) [Bicalutamide (Casodex)] | inactive: 0.181 | inactive: 0.449 |
| Cc1cccc([C@H](C)c2c[nH]cn2)c1C [Dexmedetomidine] | inactive: -0.183 | inactive: 0.826 |
| Cn1c(CCCC(=O)O)nc2cc(N(CCCl)CCCl)ccc21 [Bendamustine HCL] | inactive: -0.0702 | inactive: -4.72 |
| C/C=C(\C)C(=O)N[C@@H](c1ccccc1)[C@@H](O)C(=O)O[C@H]1C[C@@]2(O)[C@@H](OC(=O)c3ccccc3)[C@@H]3[C@]4(OC(C)=O)CO[C@@H]4C[C@H](O)[C@@]3(C)C(=O)[C@H](OC(C)=O)C(=C1C)C2(C)C [Cephalomannine] | inactive: -4.73 | inactive: -5.98 |
| O=c1[nH]c2ccccc2n1CCCN1CCC(n2c(=O)[nH]c3cc(Cl)ccc32)CC1 [Domperidone (Motilium)] | inactive: -2.79 | inactive: -2.54 |
| Cc1cccc(C)c1NC(=O)CN1CCCC1=O [Nefiracetam (Translon)] | inactive: -2.59 | inactive: -2.23 |
| CC(NC(C)(C)C)C(=O)c1cccc(Cl)c1 (centres undefined) [Amfebutamone (Bupropion)] | inactive: -0.389 | inactive: 0.000319 |
| COc1ccc(C(=O)N2CCCC2=O)cc1 [Aniracetam] | inactive: 1.72 | inactive: -0.242 |
| CC(=O)OC12COC1CC(O)C1(C)C(=O)C(O)C3=C(C)C(O)CC(O)(C(OC(=O)c4ccccc4)C21)C3(C)C (centres undefined) [10-Deacetylbaccatin-III] | inactive: -0.751 | inactive: -3.36 |
| Cc1cccc(C)c1NC1=NCCCS1 [Xylazine HCl] | inactive: -1.56 | inactive: -1.07 |
| C[C@]12CC[C@H](O)CC1=CC[C@@H]1[C@@H]2CC[C@]2(C)C(=O)CC[C@@H]12 [Dehydroepiandrosterone (DHEA)] | inactive: -2.95 | inactive: -0.314 |
| C[N+]1(C)CCCC(OC(=O)C(O)(c2ccccc2)c2ccccc2)C1 (centres undefined) [Mepenzolate Bromide] | inactive: -0.212 | inactive: 0.99 |
| C=C1CC[C@@]2(O)[C@H]3Cc4ccc(O)c5c4[C@@]2(CCN3CC2CC2)[C@H]1O5 [Nalmefene HCl] | inactive: -0.142 | inactive: 1.5 |
| C[C@@H]1CC[C@H]2[C@@H](C)C(=O)O[C@@H]3O[C@@]4(C)CC[C@@H]1[C@]32OO4 [Artemisinin] | inactive: -1.05 | inactive: -0.914 |
| CCOC(=O)c1cncn1[C@H](C)c1ccccc1 [Etomidate] | inactive: -5.6 | inactive: -1.12 |
| OC(c1ccccc1)(c1ccccc1)C1CCNCC1 [Azacyclonol] | inactive: 0.0867 | inactive: -2.85 |
| CN1[C@@H]2CC[C@H]1C[C@@H](OC(=O)C(CO)c1ccccc1)C2 (some centres undefined) [Atropine sulfate monohydrate] | inactive: -0.572 | inactive: -2.59 |
| CN1[C@@H]2C[C@@H](OC(=O)[C@H](CO)c3ccccc3)C[C@H]1[C@@H]1O[C@@H]12 [Scopolamine hydrobromide] | inactive: -1.19 | inactive: -1.66 |
| O=C1CC[C@@]2(O)[C@H]3Cc4ccc(O)c5c4[C@@]2(CCN3CC2CC2)[C@H]1O5 [Naltrexone HCl] | inactive: -0.151 | inactive: 0.711 |
| C=CC[C@]1(O)CC[C@H]2[C@@H]3CCC4=CC(=O)CCC4=C3C=C[C@@]21C [Altrenogest] | inactive: -0.482 | inactive: -1.49 |
| C[N+]1(C)[C@@H]2C[C@@H](OC(=O)[C@H](CO)c3ccccc3)C[C@H]1[C@@H]1O[C@@H]12 [Methscopolamine (Pamine)] | inactive: -1.52 | inactive: -0.551 |
| CN1[C@@H]2CC[C@H]1C[C@@H](OC(=O)[C@H](CO)c1ccccc1)C2 [Hyoscyamine (Daturine)] | inactive: -0.446 | inactive: 0.451 |
| Cc1cc(C(C#N)c2ccc(Cl)cc2)c(Cl)cc1NC(=O)c1cc(I)cc(I)c1O (centres undefined) [Closantel] | active: 2.52 | inactive: -0.158 |

Whole records as entered above. Values in the order: secreted FVIII-Gluc luciferase Z-score (HEK293 WT BDD-FVIII-Gluc)	secreted FVIII-Gluc luciferase Z-score [1]
Cc1cccc(C(C)c2c[nH]cn2)c1C (centres undefined) [Medetomidine HCl] is entered as inactive: 0.716	inactive: -0.969
C[N+]1(C)CCCC(OC(=O)C(O)(c2ccccc2)c2ccccc2)C1 (centres undefined) [Mepenzolate Bromide] is entered as inactive: -0.212	inactive: 0.99
